## Library screening results

The chains behind the UniProt entries cited, without tags or fusion partners.
UniProt E9BF75, entry or part of it: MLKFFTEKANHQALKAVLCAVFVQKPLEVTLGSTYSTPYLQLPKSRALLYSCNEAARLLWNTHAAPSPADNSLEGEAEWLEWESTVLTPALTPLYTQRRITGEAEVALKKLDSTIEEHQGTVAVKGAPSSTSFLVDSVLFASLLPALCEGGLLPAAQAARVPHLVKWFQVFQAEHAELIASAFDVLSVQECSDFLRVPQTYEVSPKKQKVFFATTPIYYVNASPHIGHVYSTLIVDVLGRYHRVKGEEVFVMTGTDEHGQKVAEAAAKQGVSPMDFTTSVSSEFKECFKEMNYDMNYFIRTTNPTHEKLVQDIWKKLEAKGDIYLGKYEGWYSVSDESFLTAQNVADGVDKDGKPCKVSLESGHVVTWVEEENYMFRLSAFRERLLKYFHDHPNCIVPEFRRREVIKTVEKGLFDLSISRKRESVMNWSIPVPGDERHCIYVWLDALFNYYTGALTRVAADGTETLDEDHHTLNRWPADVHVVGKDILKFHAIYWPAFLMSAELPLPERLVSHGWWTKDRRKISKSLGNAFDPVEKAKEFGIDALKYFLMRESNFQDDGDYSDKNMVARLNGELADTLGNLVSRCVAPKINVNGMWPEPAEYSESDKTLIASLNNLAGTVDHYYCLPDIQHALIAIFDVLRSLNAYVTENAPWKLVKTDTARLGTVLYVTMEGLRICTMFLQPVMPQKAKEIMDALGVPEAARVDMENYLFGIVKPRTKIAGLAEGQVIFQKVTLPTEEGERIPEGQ

All values are in %. How 0% and 100% were set is not recorded. Most values in the screen are low, and negative values occur. This is an unselected part of the compounds tested. A dash means the value is not listed here; it may have been measured.

LdMetRS: 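Methionyl-tRNA synthetase (putative), Leishmania donovani (UniProt E9BF75). Primary screen of methionyl-tRNA synthetase; the read-out is not stated. The test concentration is not given. The values are filed as inhibition. About 68,000 compounds were tested under these conditions; 0.035% (about 24) showed 50% or more at least once.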
Mtb heat-shock: 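Assay on Mycobacterium tuberculosis, filed only as a heat shock assay from Cornell; the read-out is not stated. The concentration is filed as 10 mM, unlikely as a test dose, so the dose is not known. Direction is inferred from retests: higher values go with stronger inhibition. Of about 69,000 compounds tested this way, about 930 (1.4%) reached 50% or more in at least one test.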

{"compound": "COc1cccc(CC2(C(=O)O)CCN(c3ccc(Cl)cn3)CC2)c1", "LdMetRS": 16.42, "Mtb heat-shock": 9.003}
{"compound": "CNC(=O)CN1CCCC12CCN(C(=O)c1cccc(F)c1)CC2", "LdMetRS": 6.723}
{"compound": "Cn1ccnc1CN1CCC(Cc2ccccn2)CC1", "LdMetRS": 2.588, "Mtb heat-shock": -39.74}
{"compound": "CC(C(=O)NCc1ccc(N2CCNC(=O)C2)cc1)n1cncn1", "stereo": "stereo not given", "LdMetRS": 10.93, "Mtb heat-shock": 2.315}
{"compound": "[H][C@@]12CCN(C(=O)C3CCC3)[C@]1([H])C(=O)N(c1ccc(F)cc1)C(=O)N2", "Mtb heat-shock": -19.25}
{"compound": "COC(=O)C(CNC(=O)Nc1nncs1)Cc1ccc(O)cc1", "stereo": "stereo not given", "LdMetRS": 13.25, "Mtb heat-shock": -2.477}
{"compound": "Cc1ccc2c(c1)N(C(=O)c1cc[nH]c(=O)c1)CC(C)O2", "stereo": "stereo not given", "LdMetRS": 11.17, "Mtb heat-shock": 0.3255}
{"compound": "Cc1ccc(NC2CCN(C(=O)c3cccc4cccnc34)CC2)nn1", "LdMetRS": 7.831, "Mtb heat-shock": -5.116}
{"compound": "Cc1cc2n(n1)CC(CNC1CCN(Cc3ccncc3)CC1)CN2", "stereo": "stereo not given", "LdMetRS": 6.406, "Mtb heat-shock": -16.93}
{"compound": "CS(=O)(=O)CCCNC1CCCN(Cc2noc(C3CC3)n2)C1", "stereo": "stereo not given", "LdMetRS": 4.061, "Mtb heat-shock": -19.24}
{"compound": "CC(C)NC(=O)Nc1cccc2c1CCN(S(C)(=O)=O)C2", "LdMetRS": 9.549, "Mtb heat-shock": 6.355}
{"compound": "CNS(=O)(=O)CC(=O)N(C1CC1)C1Cc2ccccc2C1", "LdMetRS": 14.29, "Mtb heat-shock": -11.55}
{"compound": "Cc1nc(N2CCC3(CCOC3)C2)c2cc[nH]c2n1", "stereo": "stereo not given", "LdMetRS": 2.091, "Mtb heat-shock": -9.622}
{"compound": "CCn1ncc2c1CCCC2NCc1ccc(OC)c(F)c1", "stereo": "stereo not given", "LdMetRS": 20, "Mtb heat-shock": -6.515}
{"compound": "Cc1c(NC(C)C(C)C)cccc1C(=O)NCc1ccnn1C", "stereo": "stereo not given", "LdMetRS": 6.983, "Mtb heat-shock": 3.565}
{"compound": "Cc1ccccc1NC(=O)CCNC(=O)c1ccoc1", "LdMetRS": 7.627, "Mtb heat-shock": -17.61}
{"compound": "O=C(c1ccc2nccnc2c1)N1C[C@@H](CN2CCCC2)[C@@H](CO)C1", "LdMetRS": 10.61, "Mtb heat-shock": 4.872}
{"compound": "CCCNC(=O)CCNC1CSCCc2ccccc21", "stereo": "stereo not given", "LdMetRS": 9.756, "Mtb heat-shock": 10.43}
{"compound": "CC(C)CSCCCNC(=O)C1CCOCC1", "LdMetRS": 13.45, "Mtb heat-shock": -3.283}
{"compound": "CC(NC(=O)c1cccc(CN2CCN(C)CC2)c1)c1ccccn1", "stereo": "stereo not given", "LdMetRS": 10.65, "Mtb heat-shock": -15.12}
{"compound": "CC(=O)N1C[C@H](NS(=O)(=O)N2CCOCC2)[C@@H](c2ccc(C)o2)C1", "LdMetRS": 10.13, "Mtb heat-shock": 10.16}
{"compound": "Cc1c(Br)cccc1NC(=O)N(C)CCO", "LdMetRS": 20.36, "Mtb heat-shock": -6.33}
{"compound": "Cc1nc(-c2ccccc2)n(CC(=O)NC(C)C2CC2)n1", "stereo": "stereo not given", "LdMetRS": 12.57, "Mtb heat-shock": -1.163}
{"compound": "O=C(NCCn1nc2ccccn2c1=O)c1scnc1Cl", "LdMetRS": 13.65, "Mtb heat-shock": -32.91}
{"compound": "CCC(CNC(=O)c1ccccc1Br)N1CCc2ccccc2C1", "stereo": "stereo not given", "LdMetRS": 4.891, "Mtb heat-shock": -2.045}
{"compound": "Cc1ccc2[nH]c(CO[C@H]3CN(C(=O)C4CC4)C[C@H]3F)nc2c1", "LdMetRS": 3.729, "Mtb heat-shock": -39.29}
{"compound": "CC(C)Cc1cc(C(=O)NC(C)(CO)CO)n(C)n1", "LdMetRS": 7.904, "Mtb heat-shock": -9.411}
{"compound": "O=C(c1coc(COc2cccc3cnccc23)n1)N1CCSCC1", "LdMetRS": 8.591, "Mtb heat-shock": 4.975}
{"compound": "CC(C)c1noc(CN2CCC(c3ccnn3CCO)CC2)n1", "LdMetRS": 11.45, "Mtb heat-shock": -20.75}
{"compound": "CC(=O)N1C[C@@H]2CC[C@H](C1)N(S(=O)(=O)c1cc(F)ccc1C)C2", "LdMetRS": 17.35}
{"compound": "FC(F)(F)C1CCCn2c(CNCc3ccco3)nnc21", "stereo": "stereo not given", "LdMetRS": 1.76, "Mtb heat-shock": -8.501}
{"compound": "CCN(Cc1noc(C(C)(C)C)n1)Cc1ccc(C#N)cc1F", "LdMetRS": 5.59, "Mtb heat-shock": -10.16}

2 of the entries, repeated:

| compound | LdMetRS | Mtb heat-shock |
|---|---|---|
| `[H][C@@]12CCN(C(=O)C3CCC3)[C@]1([H])C(=O)N(c1ccc(F)cc1)C(=O)N2` | - | -19.25% |
| `O=C(c1coc(COc2cccc3cnccc23)n1)N1CCSCC1` | 8.591% | 4.975% |

Data taken from ChEMBL document CHEMBL3988442, “University of Dundee, Small-Polar-MMV Screening Library” (2021).